## Results of single-concentration screens

The chains behind the UniProt entries cited, without tags or fusion partners.
UniProt P9WPC5, whole entry: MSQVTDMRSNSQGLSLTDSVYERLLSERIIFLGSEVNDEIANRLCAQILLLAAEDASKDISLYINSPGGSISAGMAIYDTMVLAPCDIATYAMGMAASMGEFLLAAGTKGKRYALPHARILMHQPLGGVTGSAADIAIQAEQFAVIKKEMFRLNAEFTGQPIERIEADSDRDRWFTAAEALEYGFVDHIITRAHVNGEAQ
UniProt P9WPC3, whole entry partner: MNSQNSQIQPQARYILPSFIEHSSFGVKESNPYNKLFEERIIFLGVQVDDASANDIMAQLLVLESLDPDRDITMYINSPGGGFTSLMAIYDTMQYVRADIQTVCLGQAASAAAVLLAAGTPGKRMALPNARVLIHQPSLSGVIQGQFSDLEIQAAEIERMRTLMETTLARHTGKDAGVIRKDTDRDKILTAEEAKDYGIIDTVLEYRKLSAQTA
UniProt P9WNZ1, whole entry: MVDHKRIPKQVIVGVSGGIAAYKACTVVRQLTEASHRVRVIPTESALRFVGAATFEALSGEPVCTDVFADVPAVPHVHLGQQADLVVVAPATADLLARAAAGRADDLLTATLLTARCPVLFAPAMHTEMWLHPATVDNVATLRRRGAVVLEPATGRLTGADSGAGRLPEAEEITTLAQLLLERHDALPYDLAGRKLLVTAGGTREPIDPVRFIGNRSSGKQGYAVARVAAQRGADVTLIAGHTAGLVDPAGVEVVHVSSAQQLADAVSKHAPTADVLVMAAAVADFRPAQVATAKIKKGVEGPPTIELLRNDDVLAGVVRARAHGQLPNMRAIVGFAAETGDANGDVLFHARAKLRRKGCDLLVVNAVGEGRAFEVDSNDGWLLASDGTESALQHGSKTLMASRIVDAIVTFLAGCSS

Source: ChEMBL document CHEMBL3988442, “University of Dundee, Small-Polar-MMV Screening Library” (2021).

Results are given as percent effect.
The controls that fix the scale are not given in the record; negative values are as filed.
The compounds are a random part of those screened.
Two or more numbers in one place are separate tests of the same structure; such repeats can differ widely.

A: 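ClpP1P2, Mycobacterium tuberculosis (UniProt P9WPC5 and UniProt P9WPC3). Protease assay of ClpP1P2, read by the AMC dye that it sets free. Compounds at 50 µM. Higher reads as stronger inhibition, judged from the few compounds that gave an IC50. Most other retested compounds had strongly negative values. Size under these conditions: about 69,000 compounds, about 10 of them at 50% or above in at least one test.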
B: 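Coenzyme A biosynthesis protein CoaBC, Mycobacterium tuberculosis (UniProt P9WNZ1). Enzyme assay of CoaBC with a phosphate dye (Biomol Green) read at 650 nm. Tested at 30 µM. Higher reads as stronger inhibition, judged from the few compounds that gave an IC50. Most strong results did not repeat in a second test. Of about 67,000 compounds tested this way, about 40 (0.06%) reached 50% or more in at least one test.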

Compound,A,B
N#Cc1ccccc1C(=O)N1CCC2(CC(=O)NC2=O)C1 (stereo not given),14.05%,1.493%
COCC(=O)NC[C@]1(O)CN(Cc2ccc3c(c2)OCCO3)C[C@H]1O,-14.39%,2.968%
c1cnc2c(c1)CN(C1CCOC1)CCN2CC1CC1 (stereo not given),5.298%,-0.6316%
O=C(Nc1cccc(F)c1)C1=NOC2(CCNCC2)C1,-3.561%,-7.536%
CC(=O)N(Cc1ncc(C)o1)C1CCN(Cc2cccc(C#N)c2)C1 (stereo not given),-4.857%,1.762%
Cn1cc(C[C@H]2[C@H](O)CCN2C(=O)C2CCCC2)cn1,7.139%,-2.737%
CCC(=O)N1CCC(c2nc(C)c3c(n2)N(C)CCC3)CC1,11%,-1.9%
CN(Cc1cc(Br)c2c(c1)OCO2)Cc1cscn1,-8.791%,2.58%
CCN(CC)S(=O)(=O)CCNc1nnc(C(C)C)s1,3.415%,-1.129%
CCc1ncc(C(=O)N(CCOC)Cc2ccccc2F)cn1,-12.23%,-2.675%
COc1cccc(CN2CCCC2c2ccc[nH]2)c1 (stereo not given),-7.948%,0.8526%
Cc1cccc(NC(=O)NC2CCC3(C2)OCCO3)c1Cl (stereo not given),-2.183%,5.67% & 35.68%
CCN(CC)C(=O)CN(C)CCn1nc2ccccn2c1=O,17.81%,10.5%
Cc1ccc(C(=O)N2CCN(C(=O)Nc3ccccn3)CC2)o1,3.299%,6.41%
CC(C)CN1CCC(c2nc3c([nH]2)CC(C)(C)CNC3=O)C1 (stereo not given),2.796%,1.493%
CN1CCN(CC2CC2)C(=O)c2cnc(N3CCCC3)nc21,-4.945%,4.302%
CC1CN(C(=O)c2ccnc(-n3cncn3)c2)c2ccccc2S1 (stereo not given),-6.734%,4.747%
CC(C)CN1C[C@H]2CCN(C(=O)NC3CCCC3)CC[C@H]2S1(=O)=O,-6.527%,4.511%
O=S(=O)(NCCn1ccc(-c2ccccn2)n1)C1CC1,-22.54%,2.133%
O=S(=O)(c1ccccc1)N1CCCN(CCCn2ccnc2)CC1,-12.14%,-31.28%
COc1ccc(C)cc1C(C(=O)O)N1CCN(Cc2ccccn2)CC1 (stereo not given),-7.275%,5.159%
CN(Cc1c(F)cccc1Cl)C(=O)Nc1cnn(CC(N)=O)c1,2.184%,-1.582%
O=C(c1cc[nH]n1)N1CCCC1C1CCN(Cc2ccccc2)CC1 (stereo not given),-9.333%,2.834%
CCc1ocnc1C(=O)N1CCOC(c2nc(C)n[nH]2)C1 (stereo not given),1.788%,1.654%
Cn1cc(NC(=O)N2CCC(OCc3ccccc3)CC2)ccc1=O,-28.23%,4.737%
CC(NC(=O)CCc1ccsc1)c1ccc2c(c1)NC(=O)CO2 (stereo not given),-11.95%,4.183%
O=C1CCC2(CCN(CC[C@@H](O)c3ccccc3)CC2)CN1CC1CC1,7.102%,2.335%
Cc1nccn1-c1ccc(CN2CC3C[C@@H](O)CN3C[C@@H]2C)cc1 (stereo not given in full),-0.2077%,-2.138%
O=C(NC1=NCCCN1c1ccc(Cl)cc1)c1cccc(Cl)c1,9.578%,-2.727%
COc1ccc(OC)c(CNC(=O)N2CCC(n3cncn3)CC2)c1,23.4%,12.8%
O=C(Cc1ccccn1)N1CCC(O)(Cn2ccc3ccncc32)CC1,-12.58%,-0.8674%
COCCN1CCC2(CC1)CN(C(=O)N(C)C)c1ccc(C)cc12,-6.591%,3.856%
Cc1nn(C)c(C)c1CCC(=O)Nc1cn(C)c(=O)n(C)c1=O,-8.011%,-5.578%
Cc1nc(CN2CCN(S(=O)(=O)N3CCCCC3)CC2)oc1C,-4.389%,-0.6369%
Cc1noc(CN(C)CC2CCCN(CCc3ccc(Cl)cc3)C2)n1 (stereo not given),-10.68%,3.308%
CCCC(O)CN1CC(C)(C)CN(C(=O)c2ccc(Cl)cc2)CC1=O (stereo not given),0.4484%,3.313%
CCc1nnc(CN(CC)C(=O)C2CCC(=O)N(C3CCCC3)C2)o1 (stereo not given),-7.919%,-2.381%
CCn1cncc1C1CC(=O)Nc2c1c(C)nn2-c1ccc(C)cc1 (stereo not given),-4.38%,-1.653%
Cc1nc(C2CCCN2CC(=O)Nc2c(C)nn(C)c2C)no1 (stereo not given),-13.05%,-1.467%
O=C1CCC(C(=O)N(Cc2ccsc2)CC2CCCO2)=NN1 (stereo not given),-14.85%,4.059%
COCCN(Cc1ccc(C)o1)C(=O)Nc1nnc2ccccn12,-4.286%,5.897%
O=C(NCC1CCOCC1)[C@@H]1C[C@@H]2CCN(Cc3ccco3)C[C@H]2O1,-8.375%,-0.1269%
O=C(COc1ccc(Br)cc1F)Nc1cn[nH]c1,-6.108%,10.32%
COc1ccc(C[C@H]2CN(c3cc(OC)ncn3)CC[C@H]2OC)cc1,-10.1%,5.484%
O=C1NCC[C@]12CN(Cc1ccncc1)C[C@H]2c1ccccc1,0.1773%,-5.447%
COc1ccccc1CC1CCCN(CCC(N)=O)C1 (stereo not given),-5.073%,7.127%
O=C(NCC1CCCO1)c1csc(Cc2ccccc2)n1 (stereo not given),17.96%,5.314%
CC(C)c1nn(C)c(N(C)C)c1CNCCC(=O)NC1CCCCC1,-24.7%,-4.215%
CCc1nc(N)nc(NCCC(=O)NC2CCCCC2)c1C,-4.45%,1.217%
CS(=O)(=O)NCc1ccc(C(=O)NCc2ccc3c(c2)CCC3)o1,3.429%,8.471%
COc1ccc(C[C@H]2CN(C(=O)c3ncccn3)CC[C@@H]2OC)cc1,-1.662%,1.416%
Cc1nc(CN2CCN(C)C(=O)C23CCN(CC2CCCC2)CC3)cs1,-2.098%,3.03%
Cc1cnc(C(=O)N2C[C@H]3CCCC(OCc4cccnc4)[C@H]3C2)cn1 (stereo not given in full),-12.54%,2.606%
O=C(Nc1ccccc1)N1CCc2nc(C(=O)N3CCCC3)sc2CC1,-5.256%,3.415%
COc1ccc(CCC(=O)N2CCNCC2C(=O)N2CCCC2)cc1 (stereo not given),-9.971%,8.148%
CC(CNC(=O)c1ccc(Cl)cc1I)N1CCCC1 (stereo not given),0.8175%,-8.742%

Some entries from above, unchanged:

| Compound | A | B |
|---|---|---|
| `O=S(=O)(c1ccccc1)N1CCCN(CCCn2ccnc2)CC1` | -12.14% | -31.28% |
| `O=C(Nc1ccccc1)N1CCc2nc(C(=O)N3CCCC3)sc2CC1` | -5.256% | 3.415% |
| `CC(=O)N(Cc1ncc(C)o1)C1CCN(Cc2cccc(C#N)c2)C1` (stereo not given) | -4.857% | 1.762% |